Not every detail of the peptide structures is certain; ends, links or a residue may be inferred.
Tested on: rat anterior pituitary cells
Assay: in vitro inhibition of growth hormone release from dispersed rat anterior pituitary cells (radioimmunoassay)
Type: cell-based
Conditions: rat anterior pituitary cells 4 days in culture, incubated 5 hours at 37° C., potency from ED50 relative to somatostatin
Protocol: Meyers et al., Biochem. Biophys. Res. Commun., 74, 630(1977). In this method, the tetradecapeptides of this invention are shown to inhibit the release of radioimmunoassayable growth hormone in vitro from enzymatically dispersed rat anterior pituitary cells prepared as described by F. Labrie et al., Sixth Karolinska Symp. on Res. Meth. in Reprod. Endocrinol. (W. Dozfalusy, Ed.), pp 301-328(1973). Following four days in culture, the cells are washed and incubated for five hours at 37° C. in Dulbecco-modified Eagle's medium in the presence or absence of increasing concentrations of each tetradecapeptide analog. Growth hormone levels are determined by double antibody radioimmunoassay, method described by C. A. Birge et al., Endocrinol., 81, 195-204(1967), for rat growth hormone using the NIAMDD Rat GH RIA kit. The dose required for a 50% inhibition of growth hormone release (ED50) is calculated for each analog by the method of D. Rodbard, Endocrinol., 94, 1427-1437(1974). The potency of the tetradecapeptide analogs of this invention relative to somatostatin is illustrated in table I.

| Compound | Growth Hormone Release-Inhibiting Activity, Relative to Somatostatin |
| --- | --- |
| C[C@H](N)C(=O)NCC(=O)N[C@H]1CSSC[C@@H](C(=O)O)NC(=O)[C@H](CO)NC(=O)[C@H]([C@@H](C)O)NC(=O)[C@H](Cc2ccccc2)NC(=O)[C@H]([C@@H](C)O)NC(=O)[C@H](CCCCN)NC(=O)[C@@H](Cc2c[nH]c3cc(F)ccc23)NC(=O)[C@H](Cc2ccccc2)NC(=O)[C@H](Cc2ccccc2)NC(=O)[C@H](CC(N)=O)NC(=O)[C@H](CCCCN)NC1=O [Example D-6-F-Trp, cyclic[3-14 disulfide] of L-alanyl-glycyl-L-cysteinyl-L-lysyl-L-asparaginyl-L-phenylalanyl-L-phenylalanyl-D-6-fluorotryptophyl-L-lysyl-L-threonyl-L-phenylalanyl-L-threonyl-L-seryl-L-cysteine] | 846% |
| C[C@H](N)C(=O)NCC(=O)N[C@H]1CSSC[C@@H](C(=O)O)NC(=O)[C@H](CO)NC(=O)[C@H]([C@@H](C)O)NC(=O)[C@H](Cc2ccccc2)NC(=O)[C@H]([C@@H](C)O)NC(=O)[C@H](CCCCN)NC(=O)[C@H](Cc2c[nH]c3ccc(Br)cc23)NC(=O)[C@H](Cc2ccccc2)NC(=O)[C@H](Cc2ccccc2)NC(=O)[C@H](CC(N)=O)NC(=O)[C@H](CCCCN)NC1=O [Example L-5-Br-Trp, cyclic[3-14 disulfide] of L-alanyl-glycyl-L-cysteinyl-L-lysyl-L-asparaginyl-L-phenylalanyl-L-phenylalanyl-L-5-bromotryptophyl-L-lysyl-L-threonyl-L-phenylalanyl-L-threonyl-L-seryl-L-cysteine] | 548% |
| C[C@H](N)C(=O)NCC(=O)N[C@H]1CSSC[C@@H](C(=O)O)NC(=O)[C@H](CO)NC(=O)[C@H]([C@@H](C)O)NC(=O)[C@H](Cc2ccccc2)NC(=O)[C@H]([C@@H](C)O)NC(=O)[C@H](CCCCN)NC(=O)[C@@H](Cc2c[nH]c3ccc(Br)cc23)NC(=O)[C@H](Cc2ccccc2)NC(=O)[C@H](Cc2ccccc2)NC(=O)[C@H](CC(N)=O)NC(=O)[C@H](CCCCN)NC1=O [Example D-5-Br-Trp, Cyclic[3-14 Disulfide] of L-Alanyl-glycyl-L-cysteinyl-L-lysyl-L-asparaginyl-L-phenylalanyl-L-phenylalanyl-D-5-bromotryptophyl-L-lysyl-L-threonyl-L-phenylalanyl-L-threonyl-L-seryl-L-cysteine] | 3002% |
| C[C@H](N)C(=O)NCC(=O)N[C@H]1CSSC[C@@H](C(=O)O)NC(=O)[C@H](CO)NC(=O)[C@H]([C@@H](C)O)NC(=O)[C@H](Cc2ccccc2)NC(=O)[C@H]([C@@H](C)O)NC(=O)[C@H](CCCCN)NC(=O)[C@H](Cc2c[nH]c3cc(F)ccc23)NC(=O)[C@H](Cc2ccccc2)NC(=O)[C@H](Cc2ccccc2)NC(=O)[C@H](CC(N)=O)NC(=O)[C@H](CCCCN)NC1=O [Example L-6-F-Trp, cyclic[3-14 disulfide] of L-alanyl-glycyl-L-cysteinyl-L-lysyl-L-asparaginyl-L-phenylalanyl-L-phenylalanyl-L-6-fluorotryptophyl-L-lysyl-L-threonyl-L-phenylalanyl-L-threonyl-L-seryl-L-cysteine] | 118% |

Source: patent publication US4224199A, “Somatostatin analogs having a substituted tryptophyl residue in position eight” (priority 1978, dated 1980)
